In PMC7061341, “Detection of the in vitro modulation of Plasmodium falciparum Arf1 by Sec7 and ArfGAP domains using a colorimetric plate-based assay” (Scientific Reports, 2020):
These are yes or no findings as the source states them, for the method shown. For some assays here: Binding calls can cover weak binding; strength is not graded here.

By UniProt entry, the sequences of proteins in these tests, tags left out. Where a name states a change or a piece, a line headed by the entry shows the natural chain unless it says otherwise. Residues count along the entry.
UniProt P84077, residues 18-181: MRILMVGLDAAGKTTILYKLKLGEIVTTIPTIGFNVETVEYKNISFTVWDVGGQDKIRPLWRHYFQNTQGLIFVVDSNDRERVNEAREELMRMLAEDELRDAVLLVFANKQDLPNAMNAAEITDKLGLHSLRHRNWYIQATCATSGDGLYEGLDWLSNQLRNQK
UniProt Q9NZ52: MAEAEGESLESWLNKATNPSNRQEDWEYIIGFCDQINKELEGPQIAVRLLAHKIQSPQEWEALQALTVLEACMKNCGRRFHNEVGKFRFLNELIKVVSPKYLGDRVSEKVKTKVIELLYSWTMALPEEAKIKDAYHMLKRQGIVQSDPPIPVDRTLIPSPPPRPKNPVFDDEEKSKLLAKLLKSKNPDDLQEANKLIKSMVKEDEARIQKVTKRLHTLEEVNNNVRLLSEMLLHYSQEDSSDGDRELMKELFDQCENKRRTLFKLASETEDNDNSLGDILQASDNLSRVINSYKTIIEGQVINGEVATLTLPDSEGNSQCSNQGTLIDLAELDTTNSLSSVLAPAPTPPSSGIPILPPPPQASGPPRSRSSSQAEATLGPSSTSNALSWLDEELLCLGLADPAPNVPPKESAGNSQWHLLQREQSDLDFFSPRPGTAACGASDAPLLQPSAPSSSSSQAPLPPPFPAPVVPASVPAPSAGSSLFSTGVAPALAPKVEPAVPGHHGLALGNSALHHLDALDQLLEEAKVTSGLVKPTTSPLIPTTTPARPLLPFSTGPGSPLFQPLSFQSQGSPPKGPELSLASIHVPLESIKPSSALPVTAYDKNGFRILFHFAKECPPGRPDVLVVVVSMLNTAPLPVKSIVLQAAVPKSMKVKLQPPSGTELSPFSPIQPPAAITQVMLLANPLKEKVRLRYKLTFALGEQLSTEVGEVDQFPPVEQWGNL

How the values were obtained:
[1] = molecular target: ^NΔ17HsArf1 (His-tagged human Arf1 minus the N-terminal 17 amino acids) (human) (UniProt P84077); test: colorimetric plate-based GST-GGA3^GAT binding assay (GST activity read at 340 nm); GTP-preloaded His-tagged Arf1 (1 µM) immobilised on Ni-NTA 96-well plate, 1 µM GST-GGA3^GAT added, 60 min at 4 °C; 25 mM HEPES, 150 mM KCl, 1 mM MgCl2, 1 mM DTT, pH 7.4, BSA; both purified
[2] = molecular target: ^NΔ17PfArf1 (His-tagged P. falciparum Arf1 minus the N-terminal 17 amino acids) (Plasmodium falciparum) (UniProt Q7KQL3); test: colorimetric plate-based GST-GGA3^GAT binding assay (GST activity read at 340 nm); both purified
[3] = molecular target: ^NΔ17HsArf1 (His-tagged human Arf1 minus the N-terminal 17 amino acids) (human) (UniProt P84077); test: condition: only after incubation of the GTP-preloaded Arf1 with 0.1 µM HsArfGAP1^GAP (30 min, 37 °C); colorimetric plate-based GST-GGA3^GAT binding assay (GST activity read at 340 nm); GTP-preloaded Arf1 (1 µM) first incubated with 0.1 µM HsArfGAP1^GAP for 30 min at 37 °C, then immobilised on Ni-NTA plate; 1 µM GST-GGA3^GAT, 60 min at 4 °C; both purified
[4] = molecular target: ^NΔ17HsArf1 (His-tagged human Arf1 minus the N-terminal 17 amino acids) (human) (UniProt P84077); test: colorimetric plate-based GST-GGA3^GAT binding assay (GST activity read at 340 nm); GDP-preloaded Arf1 (1 µM) first incubated with 0.2 µM ARNO^Sec7 and 50 µM GTP for 30 min at 37 °C, then immobilised on Ni-NTA plate; 1 µM GST-GGA3^GAT, 60 min at 4 °C; both purified
[5] = molecular target: GST-GGA3^GAT (glutathione-S-transferase fused to the GAT domain of human GGA3) (human) (UniProt Q9NZ52); test: pull-down; GGA3-coated beads; GTP-bound ^NΔ17PfArf1 (Fig. S3); both purified

Substance	binding [1]	binding [2]	binding [3]	binding [4]	binding [5]
GST-GGA3^GAT (glutathione-S-transferase fused to the GAT domain of human GGA3) (from UniProt Q9NZ52) (domain or fragment)	binds	binds	no binding	binds	–
^NΔ17PfArf1 (His-tagged P. falciparum Arf1 minus the N-terminal 17 amino acids) (from UniProt Q7KQL3 18-181) (domain or fragment)	–	–	–	–	binds
